The values below come from PubChem BioAssay AID1990 (Broad Institute, 2009).

The chains behind the UniProt entries cited, without tags or fusion partners.
UniProt P08659, whole entry, looked up: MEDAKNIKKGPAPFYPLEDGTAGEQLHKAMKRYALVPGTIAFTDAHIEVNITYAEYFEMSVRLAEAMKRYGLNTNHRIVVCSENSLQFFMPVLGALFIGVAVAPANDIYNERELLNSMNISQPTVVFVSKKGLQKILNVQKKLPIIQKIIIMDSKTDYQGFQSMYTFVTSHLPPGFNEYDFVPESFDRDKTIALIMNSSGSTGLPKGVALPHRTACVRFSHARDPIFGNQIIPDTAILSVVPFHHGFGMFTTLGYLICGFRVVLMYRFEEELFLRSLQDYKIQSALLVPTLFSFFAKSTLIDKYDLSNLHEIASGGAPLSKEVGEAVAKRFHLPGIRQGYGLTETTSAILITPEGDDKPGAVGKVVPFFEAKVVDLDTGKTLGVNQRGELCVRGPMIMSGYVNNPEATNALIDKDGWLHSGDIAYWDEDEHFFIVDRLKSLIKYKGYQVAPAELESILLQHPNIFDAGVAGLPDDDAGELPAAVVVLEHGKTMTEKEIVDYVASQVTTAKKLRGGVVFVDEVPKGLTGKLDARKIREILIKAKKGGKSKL

Each structure is given as a SMILES string. The median lay at about -60%. The list shows a part of the results. Entries with a potency or affinity are not part of this list. The source made no clear call on entries shown without one.

The target of this test is Luciferin 4-monooxygenase (Photinus pyralis) (UniProt P08659). Nature of the test: Photinus pyralis luciferase inhibitors, H4 neuroglioma cells, confirmatory dose response, luminescence (AID 1990). The note with it: at 12 µM (top of the series).
As for `CC/C=C/CC(=O)N[C@@H](c1ccccc1)[C@@H](O)C(=O)O[C@H]1C[C@@]2(O)[C@@H](OC(=O)c3ccccc3)C3[C@](C)(C(=O)[C@H](OC(C)=O)C(=C1C)C2(C)C)[C@@H](O)C[C@H]1OC[C@@]31OC(C)=O` (stereo partly drawn), the activity change, negative = inhibition was -32.6%.
As for `Cc1cc(C)c(N=Cc2c(O)[nH]c(=O)[nH]c2=O)c(C)c1`, the figure is -60.9%.
For `Cc1c2ccncc2c(C)c2c1[nH]c1ccccc12`, the activity change, negative = inhibition is -100%.
